Data published in article PMC3232189.
Results are given in words; binding and its absence hold for the method and conditions named. Binding seen in cells or lysates may run through a third protein. Some binding calls cover weakened binding; strength is not graded here.

By UniProt entry, the sequences of proteins in these tests, tags left out.
UniProt Q8VEK3: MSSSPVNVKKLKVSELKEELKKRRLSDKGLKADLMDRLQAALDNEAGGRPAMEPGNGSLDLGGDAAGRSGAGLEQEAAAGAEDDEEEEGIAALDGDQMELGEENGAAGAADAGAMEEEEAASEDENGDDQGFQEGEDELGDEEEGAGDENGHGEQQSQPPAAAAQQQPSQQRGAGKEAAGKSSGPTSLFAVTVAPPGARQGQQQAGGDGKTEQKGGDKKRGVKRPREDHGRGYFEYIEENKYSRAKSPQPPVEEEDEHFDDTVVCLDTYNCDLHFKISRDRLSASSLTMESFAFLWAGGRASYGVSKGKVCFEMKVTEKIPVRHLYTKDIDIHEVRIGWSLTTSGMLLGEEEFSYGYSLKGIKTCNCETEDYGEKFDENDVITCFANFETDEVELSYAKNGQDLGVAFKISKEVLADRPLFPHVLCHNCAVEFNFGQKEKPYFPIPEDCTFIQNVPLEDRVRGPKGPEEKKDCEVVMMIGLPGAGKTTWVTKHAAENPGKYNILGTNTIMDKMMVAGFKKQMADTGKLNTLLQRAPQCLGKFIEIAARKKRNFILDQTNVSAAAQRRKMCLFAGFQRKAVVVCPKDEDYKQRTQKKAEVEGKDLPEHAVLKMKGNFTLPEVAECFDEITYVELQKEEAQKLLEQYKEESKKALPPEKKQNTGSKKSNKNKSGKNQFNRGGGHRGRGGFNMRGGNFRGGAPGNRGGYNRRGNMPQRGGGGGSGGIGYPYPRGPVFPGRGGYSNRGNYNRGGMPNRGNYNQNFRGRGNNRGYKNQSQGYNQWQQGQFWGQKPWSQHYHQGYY
UniProt Q3TKT4: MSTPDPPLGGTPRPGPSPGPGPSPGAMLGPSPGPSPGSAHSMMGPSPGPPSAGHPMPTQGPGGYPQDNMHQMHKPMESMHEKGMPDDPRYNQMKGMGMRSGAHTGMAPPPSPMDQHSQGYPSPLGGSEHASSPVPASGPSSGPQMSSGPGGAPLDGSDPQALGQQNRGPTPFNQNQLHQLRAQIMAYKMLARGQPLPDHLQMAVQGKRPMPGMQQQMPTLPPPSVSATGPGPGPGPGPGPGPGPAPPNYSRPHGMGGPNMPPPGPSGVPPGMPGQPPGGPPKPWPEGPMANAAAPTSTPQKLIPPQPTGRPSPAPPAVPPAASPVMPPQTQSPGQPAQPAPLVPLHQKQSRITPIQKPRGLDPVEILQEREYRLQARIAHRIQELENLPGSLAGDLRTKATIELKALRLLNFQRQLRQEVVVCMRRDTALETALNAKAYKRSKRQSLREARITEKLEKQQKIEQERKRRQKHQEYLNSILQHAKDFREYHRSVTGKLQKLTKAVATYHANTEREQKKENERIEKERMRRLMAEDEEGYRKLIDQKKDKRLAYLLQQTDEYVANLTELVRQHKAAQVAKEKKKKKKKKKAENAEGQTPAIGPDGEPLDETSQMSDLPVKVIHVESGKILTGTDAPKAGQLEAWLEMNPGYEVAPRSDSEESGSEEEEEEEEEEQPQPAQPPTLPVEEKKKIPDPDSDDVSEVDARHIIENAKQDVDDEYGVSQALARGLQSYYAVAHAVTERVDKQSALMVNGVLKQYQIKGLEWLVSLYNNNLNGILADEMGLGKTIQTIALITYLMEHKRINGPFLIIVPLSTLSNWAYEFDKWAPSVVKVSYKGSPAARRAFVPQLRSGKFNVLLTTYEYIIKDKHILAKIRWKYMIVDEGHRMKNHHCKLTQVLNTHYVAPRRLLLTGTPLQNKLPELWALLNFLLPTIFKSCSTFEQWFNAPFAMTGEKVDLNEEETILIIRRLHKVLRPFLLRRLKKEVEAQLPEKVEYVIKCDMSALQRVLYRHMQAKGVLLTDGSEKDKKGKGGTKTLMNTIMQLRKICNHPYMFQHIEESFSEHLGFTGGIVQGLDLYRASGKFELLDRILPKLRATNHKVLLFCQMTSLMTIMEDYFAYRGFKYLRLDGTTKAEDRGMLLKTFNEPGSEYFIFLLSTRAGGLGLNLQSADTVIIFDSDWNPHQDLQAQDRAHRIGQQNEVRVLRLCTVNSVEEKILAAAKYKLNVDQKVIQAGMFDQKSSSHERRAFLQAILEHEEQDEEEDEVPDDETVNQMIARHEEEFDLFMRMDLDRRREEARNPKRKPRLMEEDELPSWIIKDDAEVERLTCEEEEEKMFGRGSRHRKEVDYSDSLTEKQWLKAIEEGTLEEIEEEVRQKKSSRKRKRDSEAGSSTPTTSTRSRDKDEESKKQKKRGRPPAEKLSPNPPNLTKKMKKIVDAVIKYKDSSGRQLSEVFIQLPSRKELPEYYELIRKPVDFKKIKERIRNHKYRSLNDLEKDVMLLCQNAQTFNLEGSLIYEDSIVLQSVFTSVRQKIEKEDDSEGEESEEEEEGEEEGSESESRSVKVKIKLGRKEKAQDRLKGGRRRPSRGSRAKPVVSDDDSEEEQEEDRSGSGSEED

Columns and labels:
[1] = target: Scaffold attachment factor A (SAF-A) (mouse (endogenous in R1 mES cells)) (UniProt Q8VEK3); test: proximity ligation; Duolink in situ PLA on fixed, permeabilised cells, confocal microscopy; pluripotent mES cells (+LIF), RNase A treated cells, and cells induced to differentiate (-LIF or +RA)
[2] = target: Scaffold attachment factor A (SAF-A) (mouse (endogenous in R1 mES cells)) (UniProt Q8VEK3); test: co-IP; total mES cell extract; cells treated with 5 mM DTBP before lysis (50 mM Tris-HCl pH 7.5, 0.15 M NaCl, 1% Triton X-100, 5 mM EDTA); anti-SAF-A with Protein A/G PLUS-Agarose overnight at +4°C; Western blot with anti-SAF-A and anti-BRG1; extract untreated or treated with RNase A (0.1 µg/µl, 30 min)

Brahma Related Gene 1 (BRG1) (from UniProt Q3TKT4 1-1613)
binding [1]: binds | binding [2]: binds
